The source gives many values for each of these; only a part stands here.
Tested on: L. major lysate proteins
Assay: Multitargeted bead mixture chemoproteomics, single concentration competition, proteome-wide
Type: binding
Conditions: for fold change: vehicle control = 1

Nc1nc2cccc(-c3ccccc3)c2n1Cc1ccc(Cl)c(Cl)c1 [compound 3]
fold change (protein LMJF.11.0630 AMINOPEPTIDASE, PUTATIVE,METALLO-PEPTIDASE, CLAN MF, FAMILY M17): 1.14
fold change (protein LMJF.11.1160 PROTEIN TRANSPORT PROTEIN SEC31, PUTATIVE): 0.96
fold change (protein LMJF.12.0030 […]-1 SUBUNIT, PUTATIVE): 1.11
fold change (protein LMJF.12.0530 GLUCOSE-6-PHOSPHATE ISOMERASE): 1.16
fold change (protein LMJF.12.0670 […] OXIDASE SUBUNIT IV): 0.99
fold change (protein LMJF.13.0570 40S RIBOSOMAL PROTEIN S12, PUTATIVE): 0.97
fold change (protein LMJF.13.1190 ADENYL[…], PUTATIVE): 0.94
fold change (protein LMJF.13.1660 CHAPERONIN TCP20, PUTATIVE): 1.06
fold change vs vehicle control (protein LMJF.14.0190 HY[…], CONSERVED): 0.96
fold change (protein LMJF.14.0460 CYS[…]-LYASE-LIKE PROTEIN): 0.96
fold change (protein LMJF.14.0680 FATTY ACID ELONGASE, PUTATIVE): 1.17
fold change (protein LMJF.14.1160 ENOLASE): 1.08
fold change (protein LMJF.14.1440 HY[…], CONSERVED): 1.03
fold change (protein LMJF.15.0190 HY[…], CONSERVED): 1.06
fold change (protein LMJF.15.1160 TR[…]): 1.1
fold change vs vehicle control (protein LMJF.15.1380 NUCLEOLAR RNA BINDING PROTEIN, PUTATIVE): 1.07
fold change (protein LMJF.16.0760 TRANSALDOLASE, PUTATIVE): 1.1
fold change (protein LMJF.16.0940 DYNEIN LIGHT CHAIN, PUTATIVE): 0.97
fold change (protein LMJF.17.0081 […] 1-ALPHA): 1.06
fold change (protein LMJF.17.0980 HY[…], CONSERVED): 1
fold change (protein LMJF.18.0210 HY[…], CONSERVED): 1.11
fold change (protein LMJF.18.0580 P[…]-COA HYDRATASE, PUTATIVE): 0.97
fold change (protein LMJF.18.0680 CITRATE SYNTHASE, PUTATIVE): 1
fold change (protein LMJF.18.0740 […] TU, PUTATIVE): 0.96
fold change (protein LMJF.18.1010 DYNEIN LIGHT CHAIN 2B, CYTOPLASMIC, PUTATIVE): 1
fold change vs vehicle control (protein LMJF.18.1210 PROLYL-TRNA SYNTHETASE, PUTATIVE,BI[…]-TRNA SYNTHETASE, PUTATIVE): 1.07
fold change (protein LMJF.18.1380 PYRUVATE DEHYDROGENASE E1 COMPONENT ALPHA SUBUNIT, PUTATIVE): 1.01
fold change (protein LMJF.19.0100 FIBRILLARIN, PUTATIVE): 0.85
fold change vs vehicle control (protein LMJF.19.0710 […] DEHYDROGENASE): 1.45
fold change (protein LMJF.19.0750 HY[…], CONSERVED): 0.95
fold change (protein LMJF.19.0995 4-COUMARATE:COA LIGASE-LIKE PROTEIN): 1.16
fold change (protein LMJF.19.1010 HY[…], CONSERVED): 1.26
fold change (protein LMJF.19.1420 CYSTEINE PEPTIDASE A (CPA)): 0.98
fold change (protein LMJF.19.1560 INOSINE-5'-MONOPHOSPHATE DEHYDROGENASE): 1.08
fold change vs vehicle control (protein LMJF.19.1620 POTASSIUM VOLTAGE-GATED CHANNEL, PUTATIVE): 1.06
fold change (protein LMJF.21.0280 HY[…], CONSERVED): 1.15
fold change (protein LMJF.21.0540 LA RNA BINDING PROTEIN, PUTATIVE): 1.27
fold change (protein LMJF.21.1090 T-COMPLEX PROTEIN 1, DELTA SUBUNIT, PUTATIVE): 1
fold change vs vehicle control (protein LMJF.21.1552 RNA HELICASE, PUTATIVE): 1.09
fold change (protein LMJF.21.1710 […] OXIDASE SUBUNIT VI, PUTATIVE): 0.92
fold change (protein LMJF.21.1830 […] 5 SUBUNIT, PUTATIVE): 1.21
fold change (protein LMJF.22.0420 40S RIBOSOMAL PROTEIN S15, PUTATIVE): 1.1
fold change (protein LMJF.22.1360 FARNESYL PYR[…]): 0.95
fold change (protein LMJF.22.1450 CYCLOPHILIN 6, PUTATIVE): 0.98
fold change (protein LMJF.23.0040 PEROXIDOXIN): 1.01
fold change (protein LMJF.23.0200 ENDORI[…]-PSP (PB5), PUTATIVE): 0.98
fold change (protein LMJF.23.0560 KINESIN, PUTATIVE): 0.88
fold change (protein LMJF.25.1710 PYRUVATE DEHYDROGENASE E1 BETA SUBUNIT, PUTATIVE): 1.07
fold change (protein LMJF.26.0280 HY[…], CONSERVED): 1.26
fold change (protein LMJF.26.0830 […], PUTATIVE): 0.79
fold change (protein LMJF.27.0190 […] 7 SUBUNIT, PUTATIVE): 1.06
fold change (protein LMJF.27.0560 PROTEIN KINASE, PUTATIVE,CDC2-RELATED KINASE, PUTATIVE): 1.07
fold change (protein LMJF.27.0760 GTP-binding protein homologue): 1.06
fold change (protein LMJF.27.0930 ISOVALERYL-COA DEHYDROGENASE, PUTATIVE): 1.11
fold change (protein LMJF.27.1260 T-COMPLEX PROTEIN 1, BETA SUBUNIT, PUTATIVE): 1.01
fold change (protein LMJF.27.1300 HY[…], CONSERVED): 1.07
fold change (protein LMJF.27.1390 60S ACIDIC RIBOSOMAL SUBUNIT PROTEIN, PUTATIVE): 1.14
fold change (protein LMJF.27.2330 GTP BINDING PROTEIN, PUTATIVE): 1.11
fold change (protein LMJF.28.0960 40S RIBOSOMAL PROTEIN S14): 1.22
fold change (protein LMJF.28.2260 […] PROTEIN, PUTATIVE): 1.12
fold change (protein LMJF.28.2420 2-OXOGLUTARATE DEHYDROGENASE, E2 COMPONENT, DIHYDROLIPOAMIDE SUCCINYLTRANSFERASE, PUTATIVE): 0.94
fold change (protein LMJF.28.2430 VACUOLAR ATP SYNTHASE SUBUNIT B, PUTATIVE): 0.9
